# In PubChem BioAssay AID2685 (National Center for Advancing Translational Sciences (NCATS), 2010):
# About 2,100 (0.66%) of roughly 320,000 compounds were called active. Inconclusive means that the source gave no clear call. Such entries were picked first, then a sample of the others. The call rests on the fitted dose curve; in most records, active means well fitted inhibition curve with a large enough effect in the signal ratio, with a control signal flat (not every such curve was filed as active); inconclusive means small, poorly fitted or top-dose-only effect, or effect the other way, or a change in a side signal; inactive means flat fitted curve, though single readings scatter; the % refers to the signal ratio. Where the call is inconclusive, the potency comes from a doubtful curve fit.
# Test: qHTS Assay for Lipid Storage Modulators in Drosophila S3 Cells
# Conditions: BODIPY lipid droplet fluorescence, 18-24 h, cells fed with added oleic acid; lipid storage change, negative = inhibition: at 46.1 µM (top of the series) unless noted
# Summary of the method: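 Drosophila S3 cells loaded with oleic acid (400 uM, as added) and compounds at several concentrations; lipid droplets imaged by 488-nm laser-scanning cytometry, 500–530 nm intensity and object ratio to cell channel. Percent activity normalized to 20 uM Triacsin C.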
# On the % scale 0 is the no-effect control and ±100 the full control effect; potency means the concentration at half of the fitted maximal effect.
Compound,"lipid storage change, negative = inhibition",Potency
CCOc1ccc(NC(=O)Nc2nnc(CC)s2)cc1,inconclusive: 33.1%,
O=CN1CCN(C(=O)C(=O)c2cn(CC(=O)N3CCCCC3)c3ccccc23)CC1,inactive: 5.33%,
Cc1cc(C)n(C(=O)COc2c(C)cccc2C)n1,,"inconclusive: 29.1 µM [cytotoxic, single point]"
CCC1CCCCN1CCCNC(=O)c1ccc(CS(=O)(=O)c2ccccc2C)o1 (centres undefined),,"inconclusive: 29.1 µM [rising, single point]"
Cc1cccc(C)c1OCCSc1nc2ccccc2n1CC(=O)O,inconclusive: 56.7%,
CC(=O)NS(=O)(=O)c1ccc(NC(=O)c2ccc(Cl)cc2[N+](=O)[O-])cc1,inconclusive: 0.9%,
CCn1c(C)nc2cc(C(=O)NNC(=S)NC(=O)c3ccccc3)ccc21,inconclusive: 45.7%,
Cc1ccc(NC(=O)c2cn(-c3cccc(C)n3)cn2)cc1,inconclusive: -10%,
CC(C)C(=O)Nc1nnc(Cc2c[nH]c3ccccc23)s1,inconclusive: -3.1%,
CCOC(=O)c1c(NC(=O)C2=C(C)NC(=S)NC2c2ccc(CC)cc2)sc(C)c1C (centres undefined),inconclusive: 30.7%,
CCOC(=O)Cc1csc(NS(=O)(=O)c2ccc(F)cc2)n1,,"inconclusive: 25.9 µM [falling, single point]"
COc1ccc(C(=O)O/N=C2\CCCc3nonc32)cc1,inconclusive: -13.1%,
CC(C)(C)N(Cc1ccccc1)C(=O)CCc1ccccc1,inconclusive: -4.69%,
CC(=O)Nc1ccc(S(=O)(=O)N(C)CC(=O)OCC(=O)N2CCN(C(=O)c3ccco3)CC2)cc1,,"inconclusive: 13 µM [activator, partial curve]"
CC(NC(=O)c1cccnc1)C(c1cccs1)N1CCN(C)CC1 (centres undefined),inconclusive: 46.7%,
Cc1cccc(C(=O)OCC(=O)c2ccc(CC(=O)N3CCOCC3)s2)c1C,inconclusive: -10.8%,
CCOC(=O)NC(=O)/C(C#N)=N\Nc1cccc(OC)c1,inconclusive: -25.6% [at 9.22 µM],
COc1cccc(/C=N/NC(=O)c2nc(-c3ccccc3)cc(-c3ccccc3)n2)c1O,inactive: 5.35%,
Cc1cccc(N/N=C/c2ccccc2O)c1,inconclusive: -13.4%,
Cc1ccc(OCC(=O)N/N=C\c2c(C)n(C)c3ccccc23)c([N+](=O)[O-])c1,inconclusive: -1.78%,

# An excerpt from above in order of SMILES length, ascending.
Compound,"lipid storage change, negative = inhibition",Potency
Cc1cccc(C(=O)OCC(=O)c2ccc(CC(=O)N3CCOCC3)s2)c1C,inconclusive: -10.8%,
CC(=O)NS(=O)(=O)c1ccc(NC(=O)c2ccc(Cl)cc2[N+](=O)[O-])cc1,inconclusive: 0.9%,
Cc1ccc(OCC(=O)N/N=C\c2c(C)n(C)c3ccccc23)c([N+](=O)[O-])c1,inconclusive: -1.78%,

# The results go on:

Compound,"lipid storage change, negative = inhibition",Potency
O=C(Cc1ccccc1[N+](=O)[O-])NC1CCN(Cc2ccccc2)CC1,inconclusive: -6.29%,
COc1ccc(CCNC(N)=S)cc1OC,inconclusive: 51.3%,
O=C(Nc1ncc(Cc2cccc(C(F)(F)F)c2)s1)C1CCCO1 (centres undefined),inactive: -2.84%,
COc1ccc(N(CC(=O)Nc2ccccc2C(=O)N2CCCC2)S(=O)(=O)c2ccccc2)cc1,inconclusive: -42.1%,
O=C(COc1ccccc1[N+](=O)[O-])N1CCN(c2ccccn2)CC1,inconclusive,
CC1CCCC(NC(=O)COC(=O)CCSc2ccccc2)C1C (centres undefined),inconclusive: 3.13%,
COc1ccc(-c2cc(-c3cccs3)c(C#N)c(SCC(=O)NCc3ccccc3OC)n2)cc1,inconclusive: -15.5%,
Cc1cccc(N2CCN(C(=O)c3ccc4c(c3)NC(=O)C(CSCc3ccc(F)cc3)N4)CC2C)c1 (centres undefined),inconclusive: -71.9%,
CCOC(=O)c1c(-c2ccccc2Cl)csc1NC(=O)CSc1nc(C)cc(=O)[nH]1,inconclusive: -12.8%,
COc1ccccc1NC(=S)NC1CCCCC1,inactive: -1.18%,
CCOc1cc(-c2noc(CCC(=O)NCCc3ccccc3)n2)ccc1OC,inconclusive: -22.6%,
O=C(c1ccccc1F)N1CCN(CC2CC3C=CC2C3)CC1 (centres undefined),inconclusive: 4.42%,
CCN1C(=O)/C(=C/C=C2/Sc3ccccc3N2CCO)SC1=S,,"inconclusive: 0.184 µM [falling, partial curve]"
Cc1cc(C)cc(NC(=O)c2cccnc2)c1,inconclusive: -29.2%,
COc1ccccc1CNC(=O)CN1C(=O)NC(c2ccccc2)(c2ccc(C)c(C)c2)C1=O (centres undefined),inconclusive,
COc1cccc(/C=N\n2c(C)nnc2C)c1OC,inconclusive: 20.7%,
Cc1ccc(S(=O)(=O)N2CCOC23CCN(S(=O)(=O)c2c(C)cc(C)cc2C)CC3)cc1,inconclusive: -72.2%,
CCc1ccccc1NC(=O)CSc1nnc([C@@H](N)Cc2ccccc2)o1,,"inconclusive: 29.1 µM [activator, single point]"
